Literature values in patent US6984500B2, “Method for detecting microorganisms and detection kit” (priority 2001, dated 2006).
At least one structure is not confirmed: it was looked up by name or label, or the drawing left a doubt.

Test system: A. fumigatus ATCC 26430
Conditions: reference values of NCCLS M38-P; cited from earlier work

Structure (SMILES): CCC(C)n1ncn(-c2ccc(N3CCN(c4ccc(OCC5COC(Cn6cncn6)(c6ccc(Cl)cc6Cl)O5)cc4)CC3)cc2)c1=O (stereo not shown) [ITCZ, Itraconazole]
- Allowable range (MIC reference values described in NCCLS M38-P): 0.12 to 1.0 µg/mL
